Where a name gives a salt, the structure may show the parent alone. Some of the results follow. Hit calls seldom repeat between salt and free forms of one compound.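 In K562 cells expressing nanoluciferase-fused kinases, luminescence was recorded at 4 h intervals between 2 and 18 h, normalized as percent of control with DMSO at 100% and a positive control at 0%. A significant (2 sigma) signal drop marks a time point as decreased. The authors' rule for a hit is not shown and takes in more than the number of time points.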

By UniProt entry, the sequences of proteins in these tests, tags left out. Where a name states a change or a piece, a line headed by the entry shows the natural chain unless it says otherwise.
UniProt Q9Y616: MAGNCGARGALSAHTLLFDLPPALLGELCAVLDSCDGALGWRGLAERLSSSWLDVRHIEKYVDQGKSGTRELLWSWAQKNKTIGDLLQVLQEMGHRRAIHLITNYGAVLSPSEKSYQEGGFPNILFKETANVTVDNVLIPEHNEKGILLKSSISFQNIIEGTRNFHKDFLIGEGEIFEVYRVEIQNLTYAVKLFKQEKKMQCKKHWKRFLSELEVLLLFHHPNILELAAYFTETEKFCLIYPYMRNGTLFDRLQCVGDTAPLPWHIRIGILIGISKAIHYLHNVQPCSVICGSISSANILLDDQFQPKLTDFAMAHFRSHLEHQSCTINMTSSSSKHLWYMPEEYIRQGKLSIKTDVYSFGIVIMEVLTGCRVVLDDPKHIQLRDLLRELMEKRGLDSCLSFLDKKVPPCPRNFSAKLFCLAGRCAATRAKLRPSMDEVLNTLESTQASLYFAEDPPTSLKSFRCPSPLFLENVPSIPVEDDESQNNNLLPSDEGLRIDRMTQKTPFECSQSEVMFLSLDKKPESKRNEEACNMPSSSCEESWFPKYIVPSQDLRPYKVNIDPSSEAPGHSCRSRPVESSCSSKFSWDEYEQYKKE

Here are results for 38 compounds from the supplement of paper PMC12823440, “Inhibitors supercharge kinase turnover through native proteolytic circuits” (Nature, 2025).

For this test, the target named is IRAK3 (UniProt Q9Y616). Kind of test: number of time points (of 5) at which kinase-Nluc abundance scored as decreased, DMSO-normalised (count); higher = more persistent destabilization. The settings on record: K562; 2-18 h.
`CN1CCN(c2cc(-c3ccncc3)c(-c3ccc4ccccc4c3)nn2)CC1` (10 µM): the “number of time points” value turned out to be 0.

`CC(O)(C#Cc1ccc2c(c1)N(c1nc(N)ncc1Cl)CC2)c1nccs1` (stereo not drawn) (2.5 µM): the “number of time points” value was 0.

For the compound `COc1ccc(Nc2ncc(C(F)(F)F)c(NC3CC3)n2)cc1OC` (10 µM), the “number of time points” value is 1.

For the compound `O=c1cc(N2CCOCC2)oc2c(-c3ccc4c(c3)OCCO4)csc12` (2.5 µM), the “number of time points” value amounted to 0.

Take `N[C@@H]1CCCN(c2c(/C=C3\SC(=O)NC3=O)cccc2-c2ccccc2)C1` (10 µM): the “number of time points” value came to 0.

On to `N#Cc1ccc(-c2cnc3[nH]cc(NC(=O)c4cccnc4)c3c2)cc1` (10 µM), for which the “number of time points” value was 0.

On to `COc1ccc(Br)cc1NC(=O)Nc1cccc2c1ccn2Cc1ccnc(N)c1` (2.5 µM), for which the “number of time points” value is 0.

Turning to `COc1cc(N2CCOCC2)ccc1Nc1ncc(F)c(Nc2ccccc2NS(C)(=O)=O)n1` (10 µM), the “number of time points” value is 0.

In the case of `COc1ccc(-c2cc(=O)c3c(OC)cc(OC)c(OC)c3o2)cc1` [6-Demethoxytangeretin] (10 µM), the “number of time points” value amounted to 0.

As for `COc1cc2c(cc1O)C[C@H]1c3cc(O)c(OC)cc3CC[N@@+]1(C)C2` [Phellodendrine] (10 µM), the “number of time points” value stood at 0.

`CO[C@H]1C[C@@H]2CC[C@@H](C)[C@@](O)(O2)C(=O)C(=O)N2CCCC[C@H]2C(=O)O[C@H]([C@H](C)C[C@@H]2CC[C@@H](OC(=O)C(C)(CO)CO)[C@H](OC)C2)CC(=O)[C@H](C)/C=C(\C)[C@@H](O)[C@@H](OC)C(=O)[C@H](C)C[C@H](C)/C=C/C=C/C=C/1C` [Temsirolimus] (2.5 µM): the “number of time points” value was 0.

In the case of `O=C(ON=C1c2ccccc2-c2nc3ccccc3nc21)c1ccco1` (2.5 µM), the “number of time points” value amounted to 0.

Consider `COc1ccc(S(=O)(=O)Nc2cc(-c3c(O)ccc4ccccc34)c(O)c3ccccc23)cc1` (10 µM), for which the “number of time points” value was found to be 0.

On to `Cc1cccc(COc2cccc(/C=C3\C(=O)NN(c4ccccc4)C3=O)c2)c1` (10 µM), for which the “number of time points” value is 0.

`CC(C)Oc1ccc(F)c(-c2cnc(N)c(C(=O)Nc3cnccc3N3CCC[C@@H](C(=O)O)C3)n2)c1` (2 µM): the “number of time points” value turned out to be 0.

As for `COc1cc(F)ccc1-c1ncnc(Nc2cccc(C[S@](C)(=N)=O)c2)n1` [Atuveciclib] (2.5 µM), the “number of time points” value turned out to be 2.

As for `CC(C)n1ncnc1-c1cn2c(n1)-c1ccc(O[C@@H](C)C(N)=O)cc1OCC2` (10 µM), the “number of time points” value is 0.

For the compound `Cn1c(CNc2cccc(C(=O)NCc3ccccc3C(F)(F)F)c2)nnc1-c1ccncc1` (10 µM), the “number of time points” value turned out to be 0.

Regarding `O=Nc1c(-c2c(O)[nH]c3cc(Br)ccc23)[nH]c2ccccc12` [GSK 3 Inhibitor IX] (2.5 µM), the “number of time points” value amounted to 0.

As for `Nc1ncc(C(=O)NC2CN(C(=O)C3CC3)C2)c2ccc(-c3cccc(F)c3)nc12` (2 µM), the “number of time points” value stood at 0.

As to `O=C(Nc1cc(Cl)cc2c1[nH]c1cnccc12)c1cccnc1` (10 µM), the “number of time points” value was 0.

Take `c1ccc(Cn2c(-c3ccc(OC[C@H](C4CCNCC4)n4c(-c5ccccc5)nc5ccccc54)cc3)nc3ccccc32)cc1` [Deltarasin] (2.5 µM): the “number of time points” value stood at 0.

Take `COc1cc2ncnc(Nc3cccc(I)c3)c2cc1OC` (2.5 µM): the “number of time points” value worked out at 0.

With `Clc1ccc(C(c2ccc(Cl)cc2)[n+]2ccn(CC(OCc3ccc(Cl)cc3Cl)c3ccc(Cl)cc3Cl)c2)cc1` (stereo not drawn) [Calmidazolium chloride] (2.5 µM), the “number of time points” value was 0.

Turning to `O=C(Nc1cccnc1)c1cc(-c2ccnc(F)c2)ccc1OCc1ccccc1` (10 µM), the “number of time points” value was 0.

Turning to `c1nn(C2CCOCC2)cc1Nc1ncc2nnn(-c3ccc4cn[nH]c4c3)c2n1` (10 µM), the “number of time points” value turned out to be 0.

As to `COC(=O)[C@H](CCSC)NC(=O)c1ccc(NC[C@@H](N)CS)cc1-c1ccccc1` [FTI-277 (hydrochloride)] (10 µM), the “number of time points” value was 0.

`Cc1cc(Nc2cc(N)ncn2)c(=O)n2c1C(=O)NC21CCCCC1` [Tomivosertib] (10 µM): the “number of time points” value turned out to be 0.

With `CCc1c[nH]c2ncnc(N3CC[C@](N)(CNC(=O)c4ccc(F)cc4F)C3)c12` (10 µM), the “number of time points” value is 0.

In the case of `Nc1ncnc2c1nc(Br)n2[C@@H]1O[C@@H]2COP(=O)(O)O[C@H]2[C@H]1O` [8-Bromo-cAMP sodium salt] (10 µM), the “number of time points” value was 0.

As for `CC(C)n1c(=O)n(C)c2cnc3cc(F)c(-c4ccc(OCCCN5CCCCC5)nc4)cc3c21` (10 µM), the “number of time points” value was determined as 0.

Regarding `Cc1ccc(C)c(OCCn2cc(C(=O)O)c3ccccc32)c1` (10 µM), the “number of time points” value is 0.

Regarding `COCCOc1ccc2c(c1)ncn2-c1ccc2cccc(N3CCC(N)CC3)c2n1` (10 µM), the “number of time points” value was found to be 3.

With `CC(C)=CCC/C(C)=C/CC/C(C)=C/C=C/C(C)=C/C(=O)O` [Peretinoin] (10 µM), the “number of time points” value amounted to 0.

Regarding `C=CC(=O)N1CC[C@@H](Oc2nc(Nc3ccc(N4CCC(N5CCN(C)CC5)CC4)cc3)c(C(N)=O)nc2CC)C1` [Naquotinib (mesylate)] (2.5 µM), the “number of time points” value was 0.

For the compound `CC(Sc1nc2c(cnn2-c2cccc(Cl)c2)c(=O)[nH]1)C(N)=O` (stereo not drawn) (10 µM), the “number of time points” value turned out to be 0.

Take `Cc1cc(O)c2c(c1)C(=O)c1cccc(O)c1C2=O` [Chrysophanol] (2 µM): the “number of time points” value was 0.

With `O=C1OC(/C=C/c2ccccc2)=NC/1=C\c1cccnc1` (10 µM), the “number of time points” value turned out to be 0.
